What all share (assay): co-IP
Test [1] has as its target EGFP-Cdh1 (UniProt Q9UM11).
The target in test [2] is Myc-E7 (full length, wild type HPV16 E7) (human papillomavirus 16 (HPV16)) (UniProt P03129).
For test [3], the target named is Myc-E7 p24Gly (human papillomavirus 16 (HPV16)) (UniProt P03129).
Test [4] deals with Cdh1, endogenous in CaSki cells (human (endogenous in CaSki)) (UniProt Q9UM11).
For test [5], the target named is HPV16 E7, endogenous in CaSki cells (human papillomavirus 16 (integrated in CaSki)) (UniProt P03129).
The target in test [6] is Flag-Cdh1 (wild type) (UniProt Q9UM11).
For test [7] the target is unchanged. This is another data set of the same source.

Sequences of proteins named here, by UniProt entry; tags and fusion partners are left off.
UniProt Q9UM11, whole entry: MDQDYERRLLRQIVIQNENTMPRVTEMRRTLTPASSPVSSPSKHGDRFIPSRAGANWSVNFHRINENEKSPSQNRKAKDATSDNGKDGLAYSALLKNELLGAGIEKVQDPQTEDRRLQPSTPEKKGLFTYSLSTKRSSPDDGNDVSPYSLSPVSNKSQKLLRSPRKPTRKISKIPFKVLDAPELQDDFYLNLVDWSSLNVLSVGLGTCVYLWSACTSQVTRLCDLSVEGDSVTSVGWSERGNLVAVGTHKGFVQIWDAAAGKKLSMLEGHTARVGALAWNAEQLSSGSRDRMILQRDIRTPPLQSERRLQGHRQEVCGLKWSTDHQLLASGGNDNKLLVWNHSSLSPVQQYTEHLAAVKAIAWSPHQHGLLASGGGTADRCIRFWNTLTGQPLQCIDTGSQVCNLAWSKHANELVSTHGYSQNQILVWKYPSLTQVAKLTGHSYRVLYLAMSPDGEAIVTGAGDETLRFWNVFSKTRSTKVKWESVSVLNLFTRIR

Read-outs that look alike come from different tables or passages of the source. Results are given in words; binding and its absence hold for the method and conditions named. In cells and extracts the contact can be indirect. Some binding calls cover weakened binding; strength is not graded here. For some assays here: Sequences can lack the tags named with a protein.

In the case of “DsRED-E7 WT (full length HPV16 E7) (from UniProt P03129 1-98)”, in test [1], the binding entry is “binds”. Still for that read-out and setting: with “DsRED-E7 (16-37aa) (from UniProt P03129 16-37) (domain or fragment)” the entry was “binds weakly”. “Flag-Cdh1 (wild type) (from UniProt Q9UM11-2 1-493)”: the binding entry in test [2] is recorded as “binds”; in test [3] it was “no binding”.

Consider “DsRED-E7 (1-15aa) (from UniProt P03129 1-15) (domain or fragment)”, for which the binding entry in test [1] is “binds weakly”.

Consider “HPV16 E7, endogenous in CaSki cells (from UniProt P03129 1-98)”, for which, in test [4], the binding entry is recorded as “binds”. Consider “Cdh1, endogenous in CaSki cells (from UniProt Q9UM11 1-496)”, for which the binding result in test [5] is given as “binds”. For the molecule “Myc-E7 (full length, wild type HPV16 E7) (from UniProt P03129 1-98)”, the binding result in test [6] and in test [7] was “binds” throughout.

In the case of “DsRED-E7 (38-98aa) (from UniProt P03129 38-98) (domain or fragment)”, the binding result in test [1] is on record as “binds”.

B1: EGFP-FoxM1 (protein, UniProt Q08050 1-763)
chain: MKTSPRRPLILKRRRLPLPVQNAPSETSEEEPKRSPAQQESNQAEASKEVAESNSCKFPAGIKIINHPTMPNTQVVAIPNNANIHSIITALTAKGKESGSSGPNKFILISCGGAPTQPPGLRPQTQTSYDAKRTEVTLETLGPKPAARDVNLPRPPGALCEQKRETCADGEAAGCTINNSLSNIQWLRKMSSDGLGSRSIKQEMEEKENCHLEQRQVKVEEPSRPSASWQNSVSERPPYSYMAMIQFAINSTERKRMTLKDIYTWIEDHFPYFKHIAKPGWKNSIRHNLSLHDMFVRETSANGKVSFWTIHPSANRYLTLDQVFKPLDPGSPQLPEHLESQQKRPNPELRRNMTIKTELPLGARRKMKPLLPRVSSYLVPIQFPVNQSLVLQPSVKVPLPLAASLMSSELARHSKRVRIAPKVLLAEEGIAPLSSAGPGKEEKLLFGEGFSPLLPVQTIKEEEIQPGEEMPHLARPIKVESPPLEEWPSPAPSFKEESSHSWEDSSQSPTPRPKKSYSGLRSPTRCVSEMLVIQHRERRERSRSRRKQHLLPPCVDEPELLFSEGPSTSRWAAELPFPADSSDPASQLSYSQEVGGPFKTPIKETLPISSTPSKSVLPRTPESWRLTPPAKVGGLDFSPVQTSQGASDPLPDPLGLMDLSTTPLQSAPPLESPQRLLSSEPLDLISVPFGNSSPSDIDVPKPGSPEPQVSGLAANRSLTEGLVLDTMNDSLSKILLDISFPGLDEDPLGPDNINWSQFIPELQ
In the case of B1, in test [7], the binding entry was “binds”.

The values above are taken from article doi:10.1101/2021.11.05.463553.
